Values quoted from earlier work in US20130338130A1 (priority 2009, published 2013).
Like-named read-outs stand apart in the source and are kept apart here.

Test system: Staphylococcus aureus
Settings: Etest system, cited from earlier work

## Cc1onc(-c2ccccc2)c1C(=O)N[C@@H]1C(=O)N2[C@@H]1SC(C)(C)[C@@H]2C(=O)O [oxacillin, reference compound]
MRSA
  MIC: at least 2 μg/ml
Drug sensitive Staphylococcus aureus
  MIC: ≤ 2 µg/mL
